In PubChem BioAssay AID1508600 (Functional Genomics Laboratory (NCATS/FGL), 2020) one finds z-score data, which are given here for 68 sequences.

Screen size: about 53,000 sequences; about 3,700 (7%) were called active.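 How the source made its calls: active means gene knockdowns whose robust z-score for IL-1 alpha signal is at least 2 or at most -2, so actives lie on both sides; inactive means the rest.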 This is one part of the list.

A short description of this test: Components of the Cytosolic LPS Sensing Pathway: Gene Identification via Genome-wide siRNA Screen.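 Further: robust z of the log signal after scaling to non-targeting control siRNA wells of the plate.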 Particulars: RAW264.7 macrophages, IL-1a HTRF, actives lie on both sides, screened at 100 nM (by protocol), cells primed 5 h with Pam3CSK4 first. An outline of the steps:
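Cells (RAW264.7, 1×10^4 per well) were transfected with siRNA at 100 nM and cultured 48h at 37 degrees C. Pam3CSK4 was added for 5 hours; LipidA transfection followed for 24 hour. IL-1a was then measured by HTRF.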
On the technique in general: Time-resolved FRET reads energy transfer from a long-lived donor to a nearby acceptor.
As to GGCAAAUCAAGAGUAUUUUTT against C87436, the z-score was inactive: -0.0212.

In the case of CCAUAAGAGGCUUACCAAATT against Ndrg3, the z-score was inactive: 0.0348. GCCCAUUUUUUUAGAUAUCTT against Rbl1: the z-score is inactive: -1.05. As for GGCAUCUUUCAGUUUAUAUTT against Spic, the z-score is inactive: 0.0586.

For GGCUGAACUGGGAAAGCAATT against Krtap19-4, the z-score was inactive: -0.998.

As to GGUGCUAGUGGAUCAAACGTT against Mpv17l2, the z-score is inactive: -0.766. As for GGAAUCUUUUAUAAACACCTT against Abcc12, the z-score was inactive: -0.0332. CCCUAUGAGCAAAUCACAUTT against Ppp3cc: the z-score is inactive: -0.499. GGUGCUUAGAGUCAAGAAUTT against Tmem88: the z-score is inactive: -0.95. As for GGGACACAUGGAGAUACUGTT against Ankrd2, the z-score is inactive: 0.23. GGAAAGAUGAGGAAUGUUCTT against Tbx5: the z-score was inactive: -1.75. Consider GCGACAACUGUGAUAUACCTT against Liph, for which the z-score is inactive: -0.485. Then GGCACCAGGUAAAGCAGUATT against Mitf, with inactive: 0.248.

Take GCGAAGACGGAAGCAUAUUTT against Emc8: the z-score is inactive: 0.12. Turning to CCGACUAAUGCUAAAUCCATT against Pcgf1, the z-score was inactive: 0.897.

Consider GCUGGGUCAUUUAACAAGCTT against Errfi1, for which the z-score was inactive: 0.499.

Consider GCAUUCAAUCUGCAGAGGGTT against Olfr888, for which the z-score is active: -2.48. As for GGACCAAGGAUCUUGACCUTT against Rax, the z-score is inactive: -0.232. With GGCUAUCGAUGAGAAAAGUTT against Ecm2, the z-score was inactive: -1.21.

CCAACUCGUUAUCACUAUATT against Tmigd3: the z-score was inactive: 0.89. For the sequence CCGAUAGAUCUUAUUCUCATT against Vmn1r218, the z-score is inactive: 0.244. Turning to GGCCAACACCUUUGAUGGATT against Abtb1, the z-score was inactive: 0.552. As to GGAGGUCGUAUUGCGCUAUTT against Sh2b3, the z-score was inactive: -0.206. Then GGAGUUUGUAAGGUCAUGUTT against Galt, with inactive: -0.431; and GGGAAUCCUAGACAUGCUGTT against Nphp4, with inactive: -1.91; and CCUACAGCAACCAUAAGGATT against Plch2, with inactive: -1.6. Take UGGAGCUAGCAAUACAGCGTT against Pramel26: the z-score is inactive: -1.35. For the sequence UGCAAAAAACGGAACAAUCTT against Gzmd, the z-score is inactive: 0.198. As to GCGAGAACAGCAAUAGUUCTT against Spag4, the z-score is inactive: 1.32. The same measure for GGCCAUCAUGAUUGGCGAUTT against Lhpp: inactive: 0.521. Regarding GGUAAAACAGGUAUGUCGCTT against Ramac, the z-score was inactive: 0.48. The same measure for “CGGAGCAAAUUAGGCUCUUTT against 4930402H24Rik”: inactive: 0.769; for GGUACCUCUACACAGAUGATT against Fgf21: inactive: 0.0136; for CGCCUAGCCUACUGAGAUUTT against Zswim9: inactive: -0.462. As for GGAACUUUAUGUCUCCUACTT against Lrrc56, the z-score is inactive: -0.988. Regarding CCCUUGGAGGAAGCUAACUTT against Pde2a, the z-score is inactive: -0.29.

On to GGGCGUGAAUUCAGAGAUUTT against Pcdhgb5, for which the z-score is inactive: -0.00376.

On to CCUCCAUGCUUGUUGUAGCTT against Olfr1031, for which the z-score was inactive: -0.65.

For the sequence GGAGAUGAUGUGCUUCAGUTT against Fmo9, the z-score was inactive: 0.932. Take CCAGACAGAUGGAUACCAATT against Ttpal: the z-score was inactive: 0.417. Turning to GCCACAAGAUUCAGACCCATT against Elac2, the z-score was inactive: -0.421. The same measure for CCCUAUUUGUGAGAAUGAATT against Gldc: inactive: -0.401. The same measure for GCAUUUCGAGCUGAUGGUGTT against Slc36a1: inactive: -0.0244; for GGUCAUCCUUUCUGAGUUGTT against Stard3: inactive: -0.173; for GGAUGGCUUUUUAAUGAAUTT against Chst5: inactive: 1.21. The same measure for GGUGUCAUGGACGGAAGCUTT against Cryzl1: inactive: -0.211.

“GGAAAAAUGAGGAAGAUGATT against 6430548M08Rik”: the z-score is inactive: -1.15.

With CCAUUCAUGUGUGUUCAAUTT against Zfp472, the z-score was inactive: 0.496.

As for CCUAGCCUAGCUUGGAGAGTT against Fbxl12, the z-score is inactive: -0.477.

Turning to GGCUGCUAUCAUGGAAUUATT against Ppp2cb, the z-score was inactive: 0.924. On to GGAAAGAACGACCAUAUUUTT against Pik3cb, for which the z-score was inactive: -1.41. As for CGUAGCUAUUCUGGUUGUCTT against H2-Q6, the z-score was inactive: -0.616. Take GGGAGCAGUCUUCCCUCAUTT against Cox8a: the z-score was inactive: -1.44. For GGAAAAGUGGCUUUCAUUATT against Decr1, the z-score was inactive: 0.0641. Turning to CGACAUCGAAGACAUGCUCTT against Srebf1, the z-score was inactive: 1.71. As to CGAUCUAUAUGAUGGGUGUTT against Olfr609, the z-score was inactive: 0.142. GGUCAUAUCAUUAGGUCUATT against Ptbp3: the z-score was inactive: 0.15.

Take GCAAGUGCACAUUAACCGGTT against Ptprr: the z-score is inactive: -0.322. Then GCUUCGAGAACUUUCUCCCTT against Nrtn, with inactive: 0.818; and GUUCGGUACAACUUUUCUGTT against Alx4, with inactive: 0.326. For GCUCUUGACUCACUCAGCATT against Il1bos, the z-score is active: -2.01. For GGAAGAUCCCAGAAUUAACTT against Prrc1, the z-score is inactive: 0.125. With GGACAGAGUCAUUUGAUGUTT against Cldnd1, the z-score is inactive: -0.16.

In the case of GCCCACUCAUUCAUGGAAATT against Smndc1, the z-score is inactive: -0.185. The same measure for GGCCCUCAGUUAUUAUGAGTT against Ift140: inactive: 0.977; for GGACAGCUUGUAAAUUGCCTT against Mup21: active: -2.05; for GCAAGAACUAUUGCUAUUUTT against Vmn1r217: inactive: -1.18. As for CCACUUUUUGGAUAAUCUGTT against Cep104, the z-score is inactive: -0.994.
